Results on one substance are retold here after publication PMC7577489.

Chains of the proteins cited; added tags and fusions are not shown.
UniProt P06634: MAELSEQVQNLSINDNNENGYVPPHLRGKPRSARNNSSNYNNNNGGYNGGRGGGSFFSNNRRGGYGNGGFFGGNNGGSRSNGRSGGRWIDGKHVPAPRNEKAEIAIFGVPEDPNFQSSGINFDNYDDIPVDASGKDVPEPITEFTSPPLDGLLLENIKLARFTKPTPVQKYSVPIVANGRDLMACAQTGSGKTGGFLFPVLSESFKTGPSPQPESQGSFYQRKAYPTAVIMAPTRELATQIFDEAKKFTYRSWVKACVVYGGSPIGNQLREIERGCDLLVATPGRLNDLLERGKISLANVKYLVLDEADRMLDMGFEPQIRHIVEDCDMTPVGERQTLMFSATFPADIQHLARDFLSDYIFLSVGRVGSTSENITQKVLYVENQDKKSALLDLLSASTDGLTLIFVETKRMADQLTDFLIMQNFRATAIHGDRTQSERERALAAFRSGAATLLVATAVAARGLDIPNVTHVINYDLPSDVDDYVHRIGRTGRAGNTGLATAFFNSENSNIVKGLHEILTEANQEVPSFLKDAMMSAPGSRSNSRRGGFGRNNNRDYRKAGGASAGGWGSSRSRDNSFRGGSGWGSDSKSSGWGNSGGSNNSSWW

In the experiment the target is T1, Flag-p33 replication protein (Tomato bushy stunt virus) (UniProt P15962).
T1 sequence: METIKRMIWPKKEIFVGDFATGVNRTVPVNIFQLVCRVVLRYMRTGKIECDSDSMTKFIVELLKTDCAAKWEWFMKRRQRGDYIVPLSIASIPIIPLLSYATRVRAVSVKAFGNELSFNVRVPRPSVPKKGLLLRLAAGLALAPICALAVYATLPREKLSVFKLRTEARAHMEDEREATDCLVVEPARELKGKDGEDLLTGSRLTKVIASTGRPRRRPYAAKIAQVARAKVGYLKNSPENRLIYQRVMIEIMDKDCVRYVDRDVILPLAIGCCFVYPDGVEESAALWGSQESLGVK
The experiment in a line: co-IP; co-purification with Flag-p33 on anti-FLAG M2-agarose from detergent-solubilized (2% Triton X-100, high-salt TG buffer, 0.5 M NaCl) yeast membranes; His6-tagged proteins detected with anti-His antibody; with or without co-expressed RH20^ΔN, RH30^ΔN/ΔC or RH30.

No constants are given. Whether binding was seen depends on the method and setting. In cells and extracts the contact can be indirect. Some results given as binding are weak or reduced against the parent protein; the word gives no strength. Where a sequence is shown, tags or fusion partners need not be part of it.

On to “His6-Ded1 (yeast DDX3-like Ded1 helicase) (from UniProt P06634 1-604)”, for which the binding entry is “binds”.
